Source: PubChem BioAssay AID1259354 (Paczesny and Yang Labs, IUPUI and University of Michigan, 2018)
Out of some 78,000 compounds screened, about 1,800 (2.3%) were called active. The inconclusive results got no clear call from the source; some entries with a clear call stand among them for comparison. Cut-off read from the data, not from the text of the source: active = inhibition above about 30%; inconclusive = mostly about 10% to 28%; inactive = weaker than that.

Amino acid sequences for entries named in this document (tags omitted). A change or cut given only in a name is not applied to a line headed by its entry.
UniProt Q01638: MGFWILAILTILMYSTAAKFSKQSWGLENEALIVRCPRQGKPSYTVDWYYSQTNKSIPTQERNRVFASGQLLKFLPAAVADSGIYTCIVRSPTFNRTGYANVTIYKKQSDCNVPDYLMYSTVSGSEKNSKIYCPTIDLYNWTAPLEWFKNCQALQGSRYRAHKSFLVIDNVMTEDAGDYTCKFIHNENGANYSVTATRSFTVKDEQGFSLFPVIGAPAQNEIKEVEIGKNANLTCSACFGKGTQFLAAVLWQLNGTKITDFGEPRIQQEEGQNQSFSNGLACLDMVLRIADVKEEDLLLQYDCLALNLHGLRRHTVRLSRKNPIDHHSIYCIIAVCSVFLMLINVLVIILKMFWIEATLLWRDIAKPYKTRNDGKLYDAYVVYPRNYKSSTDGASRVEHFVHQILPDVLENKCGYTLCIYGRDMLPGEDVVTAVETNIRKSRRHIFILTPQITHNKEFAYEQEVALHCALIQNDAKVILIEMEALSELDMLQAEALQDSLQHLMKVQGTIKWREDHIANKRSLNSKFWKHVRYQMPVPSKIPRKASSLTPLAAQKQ

What follows are compounds tested against Interleukin-1 receptor-like 1 (Homo sapiens) (UniProt Q01638) (assay: blocks human ST2 binding to IL-33, primary screen, biochemical, AlphaLISA (AID 1259354)). Conditions: AlphaLISA ST2-Fc/biotin-IL-33 interaction, 1 h; at 17 µM, hits give high values.

Row | SMILES | inhibition
1 | O=C(Nc1ccccc1)NC1CC(=O)N(Cc2cccc(F)c2)C1 (configuration not stated) | inactive
2 | COc1ccc(C(=O)N2CCCC(C(=O)c3cccs3)C2)c(O)c1 (configuration not stated) | inconclusive: 15%
3 | CCOc1ccccc1C=Nc1sc2c(c1C(N)=O)CCCC2 | inconclusive: 24%
4 | COc1ccc(CNC(=O)[C@H]2O[C@H](CCN3CCN(C(C)=O)CC3)CC[C@@H]2O)cc1 | inconclusive: 16%
5 | Cc1ccc(Cl)cc1N1C(=O)C2C3C=CC(CO)(O3)C2C1=O (configuration not stated) | inconclusive: 11%
6 | CC(C)CN1CC(C(=O)NCc2cc(C(C)C)no2)CC1=O (configuration not stated) | inconclusive: 12%
7 | Cc1ccc(Cl)cc1N1CCN(Cc2nc3c(c(=O)[nH]c(=O)n3C)n2CC(C)C)CC1 | inconclusive: 15%
8 | COc1ccc(NCCNc2ccc(OC)cc2)cc1 | active: 48%
9 | CCN(CC)c1ccc(/C=C2/C(C)=C(C#N)c3nc(N)c(C#N)c(C)c32)cc1 | inconclusive: 26%
10 | Clc1ccc(N2CCN(Cc3nc(-c4cccs4)no3)CC2)nc1 | inactive
11 | Cc1ccc(C2OC(=O)c3ccccc32)cc1F (configuration not stated) | inactive
12 | O=[N+]([O-])C1=Cc2cc(Br)ccc2OC1c1ccccc1Cl (configuration not stated) | inconclusive: 10%
13 | CN(C)CC1(O)CCCN(C(=O)Cn2ccc3ccccc32)CC1 (configuration not stated) | inconclusive: 20%
14 | CCOc1ccccc1NS(=O)(=O)c1ccc(OCC)c2ncccc12 | inconclusive: 29%
15 | C=CCSC(C)C(=O)N1CCOc2c(O)cc(-c3cccnc3)cc2C1 (configuration not stated) | inconclusive: 13%
16 | O=C(NCc1cccnc1)c1cc(F)c(F)cc1Cl | inactive
17 | COC(=O)c1c[nH]n2c(=O)c(Cc3ccccc3C)c(C)nc12 | active: 53%
18 | CCOc1ccc2c(=O)c(-c3nc4ccccc4s3)coc2c1 | active: 30%
19 | NC(=O)CN1C(=O)CO[C@H]2CN(Cc3ccc(Cl)cc3)C[C@H]21 | inconclusive: 14%
20 | O=C(O)c1cccc(CC2CCN(C(=O)C3CCS(=O)(=O)CC3)CC2)c1 | inconclusive: 13%
21 | N#Cc1c2c(c(Cl)n3c1nc1ccccc13)CCC2 | inconclusive: 15%

Row | SMILES | inhibition
22 | COc1cc(Br)c(/C=C2/C(=O)NN(c3ccc(C)c(Cl)c3)C2=O)cc1OC | inconclusive: 18%
23 | Cc1ccc(C(=O)N2CCCCC2)cc1C | inactive
24 | Cc1nc2nc(SCC(=O)N3CCCC3)nn2c(C)c1Cc1ccccc1 | inconclusive: 13%
25 | Cc1ccc(C(=O)C2=C(O)C(=O)N(Cc3ccco3)C2c2ccc(F)cc2)o1 (configuration not stated) | inactive
26 | O=C(Nc1ccccc1F)c1cc(-c2cccs2)nc2ccccc12 | inconclusive: 16%
27 | NC(=O)c1ccccc1NC(=O)c1cccc(C(=O)Nc2ccccc2C(N)=O)c1 | active: 30%
28 | COc1ccc(N2C(=O)CC(C(=O)N3CCCCC3C)C2c2ccc(F)cc2)cc1 (configuration not stated) | inactive
29 | N#CC1=C(SCc2ccccc2)NC(=O)CC1c1cccc(Cl)c1 (configuration not stated) | inconclusive: 19%
30 | CCSC1=C(C#N)C(c2cccc(Cl)c2)CC(=O)N1 (configuration not stated) | inactive
31 | O=S(=O)(NCCN1CCCCCC1)c1cccc2cccnc12 | inconclusive: 10%
32 | Cc1ccc(C(=O)N[C@@H]2C=C(C(=O)NCCC(N)=O)C[C@@H](O)[C@@H]2O)cc1 | inactive
33 | CC(C)NC(=O)CCS(=O)(=O)c1cccc2nsnc12 | inactive
34 | CC1=CN2C(=NC(=O)CC2(C)C(=O)NCc2ccc(F)cc2)C=C1 (configuration not stated) | inconclusive: 18%
35 | CCc1cc2c(C)cc(=O)oc2c(CN2CCCCC2CC)c1O (configuration not stated) | inactive
36 | O=c1oc2ccccc2cc1-c1nc2ccc(Cl)cc2c(=O)[nH]1 | inactive
37 | Cc1ccc(C(=O)Nc2ccc(/C(N)=N/O)cc2)cc1[N+](=O)[O-] | inconclusive: 24%
38 | Cc1ccc(-n2c(C)nc3c(cnn3-c3ccc(Cl)cc3)c2=O)cc1C | inconclusive: 17%
39 | CC(=O)Nc1ccc(/C=C2/SC(=Nc3ccccc3)NC2=O)cc1 | active: 31%
40 | CNC(=O)Cn1cc(NC(=O)c2ccc(CN3CC=CC3)cc2)cn1 | inactive
41 | Cc1ccc(C2C3=C(CCCC3=O)Nc3ccccc3N2C(=O)C(C)C)cc1 (configuration not stated) | inconclusive: 29%
42 | CS(=O)(=O)Nc1cc(-c2noc([C@@H]3CCCN3Cc3ccccn3)n2)ccn1 | inactive

Quoted at random: 2 entries already listed
Row | SMILES | inhibition
30 | CCSC1=C(C#N)C(c2cccc(Cl)c2)CC(=O)N1 (configuration not stated) | inactive
9 | CCN(CC)c1ccc(/C=C2/C(C)=C(C#N)c3nc(N)c(C#N)c(C)c32)cc1 | inconclusive: 26%

More records.

Row | SMILES | inhibition
43 | COc1ccc2nc3oc(C(=O)N4CC(C)CC(C)C4)cc3cc2c1 (configuration not stated) | inconclusive: 16%
44 | CCCOC(=O)c1ccc(N2C(=O)C3CCCCC3C2=O)cc1 (configuration not stated) | inconclusive: 17%
45 | CS(=O)(=O)NCC1CCN(Cc2cccc3c2OC(F)(F)O3)C1 (configuration not stated) | inconclusive: 10%
46 | O=C(COc1ccc(F)cc1)N1CCc2c(nc(-c3cccnc3)[nH]c2=O)C1 | inconclusive: 16%
47 | O=C1C2C3C=CC(C3)C2C(=O)N1c1ccc(Cl)c(C(F)(F)F)c1 (configuration not stated) | inactive
48 | CC(O)C(NC=C1C(=O)OC(C)(C)OC1=O)C(=O)O (configuration not stated) | inconclusive: 26%
49 | Oc1cccc(Nc2nc(-c3ccncc3)cs2)c1 | inconclusive: 15%
50 | COc1ccc(NC(=O)CC2Sc3ccccc3NC2=O)c(OC)c1 (configuration not stated) | inconclusive: 17%
51 | CC1CCC(NC(=O)CN2C(=O)COc3ccc(S(=O)(=O)N4CCCC4)cc32)CC1 (configuration not stated) | inconclusive: 11%
52 | CCc1ccc(OCC(=O)N2CCOCC2)cc1 | inconclusive: 12%
53 | Oc1c(Cl)c(Cl)c(O)c2nsnc12 | inactive
54 | CC(C)NC(=O)COc1ccc2c(c1)C(=O)CC1(CCCCC1)O2 | inactive
55 | O=C(c1ccc(-n2cnnc2)cc1)N(Cc1ccccn1)CC1CCCO1 (configuration not stated) | inactive
56 | O=C(O)C1CC=CCC1C(=O)Nc1ccccc1 (configuration not stated) | inactive
57 | Cc1ccc(N2CCN(C(=O)c3cccc([N+](=O)[O-])c3C)CC2)cc1C | inconclusive: 23%
58 | CC(=O)Nc1ccc(-c2ccc(=O)n3c2[C@@H]2C[C@@H](CN(S(=O)(=O)c4ccccc4)C2)C3)cc1 | inconclusive: 14%
59 | c1ccc(CCn2ccnc2-c2ccc(-c3ccn[nH]3)s2)nc1 | inconclusive: 10%
60 | Cc1ccc(NC(=O)C(c2ccccc2)c2ccccc2)c([N+](=O)[O-])c1 | active: 41%
61 | OC1(Cc2cc(-c3ccccc3)no2)CCN(Cc2ccc3c(c2)OCCO3)CC1 | inconclusive: 15%
62 | N#Cc1ccc(N2C(=O)C3C4C=CC(O4)C3C2=O)cc1 (configuration not stated) | inconclusive: 12%
